Results are given in words; binding and its absence hold for the method and conditions named. In cells and extracts the contact can be indirect. These calls come from enrichment with a bait or labelling near it, and not all partners need be listed.
B1: zinc-finger protein 326 (protein, UniProt O88291 1-580)
chain: MDFEDDYVHSTCRGAYQDFNGMDRDYGPGSYGGLDRDYGHGSYGGQRSMDSYLNQSYGMDNHSGGGGGSRFGPYESYDSRSSLGGRDLYRSGYGFNEPEQTRFGGSYGGRFESSYRNSLDSFGGRNQGGSSWEAPYSRSKLRPGFMEDRGRENYSSYSSFSSPHMKPAPVGSRGRGTPAYPESTFGSRSYDAFGGPSTGRGRGRGHMGDFGSFHRPGIIVDYQNKPANVTIATARGIKRKMMQIFIKPGGAFIKKPKLAKPMDKMNLSKSPTKTDPKNEEEEKRRIEARREKQRRRREKNSEKYGDGYRMAFTCSFCKFRTFEEKDIELHLESSSHQETLDHIQKQTKFDKVVMEFLHECMVNKFKKASIRKQQTLNHPEAYKIIEKDIMEGVTADDHMMKVETVHCSACSVYIPALHSSVQLHLKSPDHSKGKQAYKEQIKRESVLTATSILNNPIVKARYERFVKGENPFEIQDHPQDQQIEGDEEDEEKIDEPIEEEEEEEEEEEEEGEEAGSVEEEGDVEGEEGTAEAAAAGEADAVGEAEGAGEAEEAEEEEEEEGTQEFAAQACATEQCEHRQM
B2: TNF receptor-associated factor 4 (protein, UniProt Q61382 1-470)
chain: MPGFDYKFLEKPKRRLLCPLCGKPMREPVQVSTCGHRFCDTCLQEFLSEGVFKCPEDQLPLDYAKIYPDPELEVQVLGLAIRCIHSEEGCRWSGPLRHLQGHLNTCSFNVVPCPNRCPAKLSRRDLPAHLQHDCPKRRLKCEFCGCDFSGEAYESHEGVCPQESVYCENKCGARMMRRLLAQHATSECPKRTQPCAYCTKEFVYDTIQSHQYQCPRLPVPCPNQCGVGTVAREDLPTHLKDSCSTAFVLCPFKESGCKHRCPKLAMGRHVEESVKPHLAMMCALVSRQRQELQELRRELEELSIGSDGVLIWKIGSYGRRLQEAKAKPNLECFSPAFYTHKYGYKLQVSAFLNGNGSGEGTHLSIYIRVLPGAFDNLLEWPFARRVTFSLLDQSDPGLAKPQHVTETFHPDPNWKNFQKPGTWRGSLDESSLGFGYPKFISHQDIRKRNYVRDDAVFIRASVELPRKILS

Amino acid sequences for entries named in this document (tags omitted).
UniProt Q8CIG8: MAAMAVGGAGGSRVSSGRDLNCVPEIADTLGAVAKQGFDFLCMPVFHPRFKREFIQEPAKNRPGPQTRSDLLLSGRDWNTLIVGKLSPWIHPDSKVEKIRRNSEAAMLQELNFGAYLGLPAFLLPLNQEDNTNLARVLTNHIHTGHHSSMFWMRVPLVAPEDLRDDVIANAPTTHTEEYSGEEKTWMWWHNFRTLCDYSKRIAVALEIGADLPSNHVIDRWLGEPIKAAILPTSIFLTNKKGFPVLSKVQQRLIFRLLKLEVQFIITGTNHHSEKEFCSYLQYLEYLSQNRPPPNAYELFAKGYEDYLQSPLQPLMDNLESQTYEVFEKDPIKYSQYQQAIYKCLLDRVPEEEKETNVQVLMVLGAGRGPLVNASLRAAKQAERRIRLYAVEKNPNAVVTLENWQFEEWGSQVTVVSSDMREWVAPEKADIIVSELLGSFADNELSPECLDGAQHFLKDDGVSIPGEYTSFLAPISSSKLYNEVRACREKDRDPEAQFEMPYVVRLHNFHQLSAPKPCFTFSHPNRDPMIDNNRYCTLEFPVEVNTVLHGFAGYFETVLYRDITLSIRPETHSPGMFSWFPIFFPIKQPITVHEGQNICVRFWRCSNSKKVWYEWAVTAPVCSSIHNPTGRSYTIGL
UniProt Q9WV92: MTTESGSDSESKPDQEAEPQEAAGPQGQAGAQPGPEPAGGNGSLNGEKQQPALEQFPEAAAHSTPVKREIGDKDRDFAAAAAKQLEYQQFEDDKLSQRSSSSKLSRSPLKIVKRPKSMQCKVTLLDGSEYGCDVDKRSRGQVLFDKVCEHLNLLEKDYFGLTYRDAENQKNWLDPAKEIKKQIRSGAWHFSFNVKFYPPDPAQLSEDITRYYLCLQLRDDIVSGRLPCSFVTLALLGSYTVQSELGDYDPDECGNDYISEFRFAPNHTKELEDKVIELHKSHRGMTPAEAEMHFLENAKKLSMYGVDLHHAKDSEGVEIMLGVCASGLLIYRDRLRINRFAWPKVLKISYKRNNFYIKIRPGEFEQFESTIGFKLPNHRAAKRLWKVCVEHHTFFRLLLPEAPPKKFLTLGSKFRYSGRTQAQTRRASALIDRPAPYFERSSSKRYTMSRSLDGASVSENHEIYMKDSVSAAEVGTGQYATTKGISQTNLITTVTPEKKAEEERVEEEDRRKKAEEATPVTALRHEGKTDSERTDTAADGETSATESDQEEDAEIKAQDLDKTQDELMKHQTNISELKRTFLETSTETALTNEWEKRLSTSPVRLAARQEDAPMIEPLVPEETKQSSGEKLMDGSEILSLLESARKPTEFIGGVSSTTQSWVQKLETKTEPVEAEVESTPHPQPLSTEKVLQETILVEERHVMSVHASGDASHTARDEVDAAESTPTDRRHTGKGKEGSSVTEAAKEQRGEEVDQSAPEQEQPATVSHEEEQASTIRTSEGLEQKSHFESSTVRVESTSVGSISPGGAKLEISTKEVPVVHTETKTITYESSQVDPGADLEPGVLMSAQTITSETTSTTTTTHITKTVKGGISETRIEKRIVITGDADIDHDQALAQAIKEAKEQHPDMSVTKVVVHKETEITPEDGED

Molecular target: protein arginine methyl transferase PRMT5 (mouse (endogenous in primary mouse OPCs)) (UniProt Q8CIG8)
Experiment: affinity purification with mass spectrometry; IP of endogenous PRMT5 with PRMT5 antibody (Abcam ab109451) against normal IgG control, protein-A beads, overnight at 4°C, from NP-40 lysates (50 mM HEPES pH 7.4, 150 mM NaCl, 1% NP-40) of primary mouse oligodendrocyte progenitors kept with mitogens or without mitogens with T3 for 48 h; in-gel tryptic digestion and LC-MS/MS; hits: at least two unique peptides in the PRMT5 IP and none in IgG

| binding | Molecule |
| --- | --- |
| binds | Band 4.1-like protein 3 (from UniProt Q9WV92 1-929) |
| binds | B1 |
| binds | B2 |
